# According to PMC4207637:
# Sequences of proteins named here, by UniProt entry; tags and fusion partners are left off.
# UniProt O95832: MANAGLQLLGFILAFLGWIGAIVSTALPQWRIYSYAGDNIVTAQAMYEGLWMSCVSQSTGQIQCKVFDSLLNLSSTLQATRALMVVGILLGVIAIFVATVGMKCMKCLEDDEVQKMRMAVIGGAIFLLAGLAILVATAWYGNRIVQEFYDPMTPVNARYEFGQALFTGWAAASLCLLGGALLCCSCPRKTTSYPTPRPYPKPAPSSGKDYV
# UniProt Q01546: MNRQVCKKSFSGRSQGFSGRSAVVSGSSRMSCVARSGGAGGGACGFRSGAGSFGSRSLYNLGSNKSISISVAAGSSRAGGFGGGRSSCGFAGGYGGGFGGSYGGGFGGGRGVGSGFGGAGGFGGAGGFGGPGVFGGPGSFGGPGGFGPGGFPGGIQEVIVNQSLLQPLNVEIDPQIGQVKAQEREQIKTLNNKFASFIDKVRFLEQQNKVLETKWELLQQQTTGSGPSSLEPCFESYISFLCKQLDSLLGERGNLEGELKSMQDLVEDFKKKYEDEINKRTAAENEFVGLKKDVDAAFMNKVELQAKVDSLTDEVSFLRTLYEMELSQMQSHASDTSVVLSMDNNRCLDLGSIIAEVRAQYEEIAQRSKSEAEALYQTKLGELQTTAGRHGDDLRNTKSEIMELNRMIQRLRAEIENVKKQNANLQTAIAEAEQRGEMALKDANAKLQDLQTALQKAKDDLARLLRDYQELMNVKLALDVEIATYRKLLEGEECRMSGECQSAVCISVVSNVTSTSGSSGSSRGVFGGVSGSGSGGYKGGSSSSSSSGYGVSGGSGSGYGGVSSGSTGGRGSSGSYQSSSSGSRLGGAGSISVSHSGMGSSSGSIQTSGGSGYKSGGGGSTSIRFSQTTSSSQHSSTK
# No constants are given. Whether binding was seen depends on the method and setting. In cells and extracts the contact can be indirect. Some entries that bind do so weakly or less than the wild type.
# Biological target: Claudin1 (CLDN1), endogenous in A549 cells (human (endogenous in A549)) (UniProt O95832)
# Test: co-IP; soluble extract of confluent A549 cells (1% Triton X-100 in TBS, 2 hrs at 4°C); anti-CLDN1 or non-immune IgG on Pierce Crosslink IP columns; washed 3 times in lysis buffer; blotted for ZO-1, CLDN1 and KRT76
substance,measurement,value
"Keratin 76 (KRT76), endogenous in A549 cells (from UniProt Q01546 1-638)",binding,binds
